Measurements as given in patent publication US20230220074A1.
No constants are given. Whether binding was seen depends on the method and setting. Some results given as binding are weak or reduced against the parent protein; the word gives no strength.

The chains behind the UniProt entries cited, without tags or fusion partners. Where a name states a change or a piece, a line headed by the entry shows the natural chain unless it says otherwise.
UniProt Q9UKJ1: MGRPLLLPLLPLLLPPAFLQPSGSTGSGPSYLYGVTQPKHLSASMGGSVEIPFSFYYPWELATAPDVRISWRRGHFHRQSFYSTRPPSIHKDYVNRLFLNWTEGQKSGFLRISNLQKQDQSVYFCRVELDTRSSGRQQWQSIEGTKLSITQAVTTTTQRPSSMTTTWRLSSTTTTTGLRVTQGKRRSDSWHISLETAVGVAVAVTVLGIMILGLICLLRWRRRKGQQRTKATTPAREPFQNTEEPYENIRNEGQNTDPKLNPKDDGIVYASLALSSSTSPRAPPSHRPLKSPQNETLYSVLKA

Key:
[1] = biological target: human PILRA (human) (UniProt Q9UKJ1); test: flow cytometry, conditioned medium on 293 cells expressing human PILRA
[2] = biological target: human PILRA (human) (UniProt Q9UKJ1); test: flow cytometry competition on 293FS hPILRA cells

Row | binding [1] | binding [2] | Binder
1 | binds |  | hPA-001 (antibody, V domains shown) VH: QVTLKESGPGILQPSQTLSLTCSFSGFSLTTFGMGVGWIRQPSGKGLEWLAHIWWDDDKYYNPALKSRLTISKDISKNQVFLKIANVDTADTATYYCARIEDYGNPFDYWGQGTTLTVSS VL: DIQMNQSPSSLSASLGDTITITCHASQNIHVWLSWYQQKPGNIPKLLIYKASNLHTGVPSRFSGSGSGTGFTLTISSLQPEDIATYYCQQGQSYPLTFGAGTKLELK
2 | binds | binds | hPA-004 (antibody, V domains shown) VH: QVTLKESGPGMLQPSQTLSLACSFSGFSLNSFGVAVGWIRQPSGKGLEWLAHIWWDDDKSYNPALKSRLTISKDTSKNQVFLKLANVDTADTATYYCTRIADYGNHFDYWGQGTALTVSS VL: DIQMNQSPSSLSASLGDTITITCHASQNSHVWLSWYQQKPGNIPKLLIYKASNLHTGVPSRFSGSGSGTGFTLTISGLQPEDIATYYCQQGQTYPFTFGSGTKLEIK
3 | binds | binds | hPA-005 (antibody, V domains shown) VH: QVILKESGPGILQSSQTLSLTCSFSGFSLSTFGMGVGWIRQPSGKGLESLAHIWWDDDKFYNPALKSRLTISKDTSKSQVFLKIANVDTADIATYYCTRIEDYGSYFAYWGQGTTLTVSS VL: DVQMNQSPSSLSASLGDPITITCHASQNIHVWLNWYQQRPGNIPRLLIYKASNLHTGVPSRFSGSGSGTGFTLTISSLQPEDIATYYCQQGQSYPYTFGGGTKLEIK
4 | binds | binds | hPA-002 (antibody, V domains shown) VH: QVTLQESGPGILQPSQTLSLTCSFSGFSLSTFGMGVGWIRQPSGKGLEWLAHIWWDDDKYYNPALKSRLTISKDTSKNQVFLKIASVDTADIATYYCARVEDYGNPFDYWGQGTTLTVSS VL: DIQMNQSPSSLSASLGDTITITCHASQNIHVWLNWYQQKPGNIPKLLIYKASNLHTGVPSRFSGSGSGTGFTVTISSLQPEDIATYYCQQGQSYPLTFGAGTKLELK
